Data source: PubChem BioAssay AID1508597 (Cure First, 2020)
Aim: 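Survival screen with siRNA in ovarian cancer cells derived from patients, with or without rucaparib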 (primary screen). System: human ovarian carcinoma lines grown from tumours: OCI-P5x (papillary serous) and OCI-C5x (clear cell). Knock-down reagent: siRNA pool against human genes, 1.25 pmol siRNA per well. Timing: 72 h or 96 h, depending on the cell culture. Conditions: rucaparib 20 µM (about IC30) or vehicle, present until read-out. Detection: 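ATP luminescence measured at 72 or 96 h according to the culture, then normalised and expressed as percent viability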. Reading the numbers: viability, normalised: higher = more viable cells remaining. Hit rule: 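Active when normalised viability falls below 80 percent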. Meaning of the calls: active = viability under 80%; inactive = viability 80% or more.
In all, the deposit lists about 2,100 reagents; this is a part drawn at random. 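Calls flag viability under 80% in either arm, not effects specific to rucaparib; the reference for percent is not stated.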 Entries without a mark were called inactive. Not stated in the record: the 100% reference.

no.	gene knocked down	rucaparib or vehicle	cell line	technical replicate	viability, normalised (%)
1	ROBO1 (GeneID 6091)	Rucaparib	OCI-C5x (clear cell)	1	52.4 (active)
2	ROBO1 (GeneID 6091)	Rucaparib	OCI-C5x (clear cell)	2	45.7 (active)
3	ROBO1 (GeneID 6091)	Rucaparib	OCI-C5x (clear cell)	3	40.8 (active)
4	ROBO1 (GeneID 6091)	Rucaparib	OCI-P5x (serous)	1	53.1 (active)
5	ROBO1 (GeneID 6091)	Rucaparib	OCI-P5x (serous)	2	55.9 (active)
6	ROBO1 (GeneID 6091)	Rucaparib	OCI-P5x (serous)	3	55.1 (active)
7	ROBO1 (GeneID 6091)	Vehicle	OCI-C5x (clear cell)	1	33.7 (active)
8	ROBO1 (GeneID 6091)	Vehicle	OCI-C5x (clear cell)	2	43.9 (active)
9	ROBO1 (GeneID 6091)	Vehicle	OCI-C5x (clear cell)	3	40.1 (active)
10	ROBO1 (GeneID 6091)	Vehicle	OCI-P5x (serous)	1	67.7 (active)
11	ROBO1 (GeneID 6091)	Vehicle	OCI-P5x (serous)	2	80.6
12	ROBO1 (GeneID 6091)	Vehicle	OCI-P5x (serous)	3	115

Entries listed so far marked active (10):
gene knocked down	rucaparib or vehicle	cell line	technical replicate	viability, normalised (%)
ROBO1 (GeneID 6091)	Rucaparib	OCI-C5x (clear cell)	1	52.4 (active)
ROBO1 (GeneID 6091)	Rucaparib	OCI-C5x (clear cell)	2	45.7 (active)
ROBO1 (GeneID 6091)	Rucaparib	OCI-C5x (clear cell)	3	40.8 (active)
ROBO1 (GeneID 6091)	Rucaparib	OCI-P5x (serous)	1	53.1 (active)
ROBO1 (GeneID 6091)	Rucaparib	OCI-P5x (serous)	2	55.9 (active)
ROBO1 (GeneID 6091)	Rucaparib	OCI-P5x (serous)	3	55.1 (active)
ROBO1 (GeneID 6091)	Vehicle	OCI-C5x (clear cell)	1	33.7 (active)
ROBO1 (GeneID 6091)	Vehicle	OCI-C5x (clear cell)	2	43.9 (active)
ROBO1 (GeneID 6091)	Vehicle	OCI-C5x (clear cell)	3	40.1 (active)
ROBO1 (GeneID 6091)	Vehicle	OCI-P5x (serous)	1	67.7 (active)

More reagents:
no.	gene knocked down	rucaparib or vehicle	cell line	technical replicate	viability, normalised (%)
13	DDX28 (GeneID 55794)	Rucaparib	OCI-C5x (clear cell)	1	49.1 (active)
14	DDX28 (GeneID 55794)	Rucaparib	OCI-C5x (clear cell)	2	38.2 (active)
15	DDX28 (GeneID 55794)	Rucaparib	OCI-C5x (clear cell)	3	36.2 (active)
16	DDX28 (GeneID 55794)	Rucaparib	OCI-P5x (serous)	1	70.7 (active)
17	DDX28 (GeneID 55794)	Rucaparib	OCI-P5x (serous)	2	82.7
18	DDX28 (GeneID 55794)	Rucaparib	OCI-P5x (serous)	3	53.9 (active)
19	DDX28 (GeneID 55794)	Vehicle	OCI-C5x (clear cell)	1	31.9 (active)
20	DDX28 (GeneID 55794)	Vehicle	OCI-C5x (clear cell)	2	45 (active)
21	DDX28 (GeneID 55794)	Vehicle	OCI-C5x (clear cell)	3	49.9 (active)
22	DDX28 (GeneID 55794)	Vehicle	OCI-P5x (serous)	1	91.2
23	DDX28 (GeneID 55794)	Vehicle	OCI-P5x (serous)	2	80.7
24	DDX28 (GeneID 55794)	Vehicle	OCI-P5x (serous)	3	90.6
